The source of these data is the supplement of paper PMC12067093, “Discovery and optimisation of a covalent ligand for TRIM25 and its application to targeted protein ubiquitination” (Chemical Science, 2025).

Chains of the proteins cited; added tags and fusions are not shown. Lines headed by an entry give the natural chain unless they say otherwise; changes in a name come on top.
UniProt Q8TEM1: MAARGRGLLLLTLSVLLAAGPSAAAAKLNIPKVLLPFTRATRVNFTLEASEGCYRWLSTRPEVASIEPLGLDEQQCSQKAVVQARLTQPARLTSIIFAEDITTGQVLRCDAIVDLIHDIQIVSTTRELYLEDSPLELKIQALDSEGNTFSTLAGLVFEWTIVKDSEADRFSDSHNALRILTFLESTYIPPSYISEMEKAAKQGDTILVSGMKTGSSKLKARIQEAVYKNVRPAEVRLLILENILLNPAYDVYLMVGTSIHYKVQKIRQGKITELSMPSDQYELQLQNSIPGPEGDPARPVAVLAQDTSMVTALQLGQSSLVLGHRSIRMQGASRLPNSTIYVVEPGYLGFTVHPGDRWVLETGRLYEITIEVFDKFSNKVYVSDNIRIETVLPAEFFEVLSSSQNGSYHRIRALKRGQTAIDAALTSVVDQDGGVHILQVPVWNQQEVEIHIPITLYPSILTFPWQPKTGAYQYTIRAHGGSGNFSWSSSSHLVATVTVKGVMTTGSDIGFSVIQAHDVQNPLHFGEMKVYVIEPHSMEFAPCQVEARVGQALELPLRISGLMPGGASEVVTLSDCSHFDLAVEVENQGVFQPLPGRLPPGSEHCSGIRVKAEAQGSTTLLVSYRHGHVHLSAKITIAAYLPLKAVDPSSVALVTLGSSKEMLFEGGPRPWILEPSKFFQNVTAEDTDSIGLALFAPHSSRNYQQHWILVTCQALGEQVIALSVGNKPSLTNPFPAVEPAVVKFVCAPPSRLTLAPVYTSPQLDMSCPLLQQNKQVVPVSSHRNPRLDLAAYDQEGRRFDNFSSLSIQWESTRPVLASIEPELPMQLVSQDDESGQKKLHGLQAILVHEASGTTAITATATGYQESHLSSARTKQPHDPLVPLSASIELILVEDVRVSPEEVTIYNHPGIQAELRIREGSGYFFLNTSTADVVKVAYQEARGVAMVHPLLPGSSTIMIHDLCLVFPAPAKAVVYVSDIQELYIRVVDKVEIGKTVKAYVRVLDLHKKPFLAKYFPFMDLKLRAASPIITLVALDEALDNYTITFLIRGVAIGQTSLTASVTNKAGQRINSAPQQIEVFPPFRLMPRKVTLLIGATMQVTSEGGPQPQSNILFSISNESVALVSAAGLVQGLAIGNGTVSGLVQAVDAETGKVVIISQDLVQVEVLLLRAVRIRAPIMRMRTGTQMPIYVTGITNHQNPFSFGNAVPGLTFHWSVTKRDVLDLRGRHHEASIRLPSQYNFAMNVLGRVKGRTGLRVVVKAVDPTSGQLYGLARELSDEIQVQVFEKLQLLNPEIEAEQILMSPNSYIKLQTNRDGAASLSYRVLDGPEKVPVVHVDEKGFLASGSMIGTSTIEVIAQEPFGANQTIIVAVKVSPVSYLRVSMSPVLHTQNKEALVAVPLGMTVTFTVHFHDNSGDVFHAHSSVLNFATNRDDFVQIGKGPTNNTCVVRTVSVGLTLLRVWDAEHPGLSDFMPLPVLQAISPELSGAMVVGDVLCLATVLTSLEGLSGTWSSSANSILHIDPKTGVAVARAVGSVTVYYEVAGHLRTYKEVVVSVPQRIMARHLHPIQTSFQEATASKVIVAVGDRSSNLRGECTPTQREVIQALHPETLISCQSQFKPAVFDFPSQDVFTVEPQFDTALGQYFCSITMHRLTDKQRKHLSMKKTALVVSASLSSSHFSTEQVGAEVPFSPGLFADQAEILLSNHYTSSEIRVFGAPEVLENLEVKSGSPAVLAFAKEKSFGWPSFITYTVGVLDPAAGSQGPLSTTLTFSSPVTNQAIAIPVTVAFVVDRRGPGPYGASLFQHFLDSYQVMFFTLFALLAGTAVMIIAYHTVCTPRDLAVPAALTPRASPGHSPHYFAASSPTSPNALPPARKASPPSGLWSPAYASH
UniProt O15294: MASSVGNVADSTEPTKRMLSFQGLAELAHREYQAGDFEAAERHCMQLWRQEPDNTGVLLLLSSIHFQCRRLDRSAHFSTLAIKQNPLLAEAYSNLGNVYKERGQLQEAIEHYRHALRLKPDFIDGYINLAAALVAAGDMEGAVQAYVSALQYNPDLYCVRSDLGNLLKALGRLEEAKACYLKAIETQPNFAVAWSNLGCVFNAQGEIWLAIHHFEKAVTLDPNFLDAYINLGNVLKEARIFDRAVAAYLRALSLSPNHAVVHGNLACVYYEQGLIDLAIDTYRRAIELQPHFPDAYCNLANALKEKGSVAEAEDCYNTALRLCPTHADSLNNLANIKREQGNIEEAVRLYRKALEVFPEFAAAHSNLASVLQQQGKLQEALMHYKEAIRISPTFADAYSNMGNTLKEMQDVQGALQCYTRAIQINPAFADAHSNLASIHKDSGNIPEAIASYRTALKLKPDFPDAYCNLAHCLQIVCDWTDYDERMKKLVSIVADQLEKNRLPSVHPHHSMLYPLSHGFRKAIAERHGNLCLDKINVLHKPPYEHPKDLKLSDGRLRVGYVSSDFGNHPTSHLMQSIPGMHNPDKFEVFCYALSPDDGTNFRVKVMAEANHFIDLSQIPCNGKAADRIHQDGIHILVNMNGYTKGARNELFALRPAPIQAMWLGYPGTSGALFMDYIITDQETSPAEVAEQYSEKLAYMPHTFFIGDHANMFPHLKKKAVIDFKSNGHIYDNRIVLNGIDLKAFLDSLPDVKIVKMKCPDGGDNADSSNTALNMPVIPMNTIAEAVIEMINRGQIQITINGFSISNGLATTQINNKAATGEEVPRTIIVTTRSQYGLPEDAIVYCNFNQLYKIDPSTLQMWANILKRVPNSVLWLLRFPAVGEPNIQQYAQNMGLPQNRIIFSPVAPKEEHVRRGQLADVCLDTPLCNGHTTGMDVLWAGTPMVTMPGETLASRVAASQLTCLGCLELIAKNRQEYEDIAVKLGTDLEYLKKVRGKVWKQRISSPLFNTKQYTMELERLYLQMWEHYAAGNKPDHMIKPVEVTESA
UniProt O60313: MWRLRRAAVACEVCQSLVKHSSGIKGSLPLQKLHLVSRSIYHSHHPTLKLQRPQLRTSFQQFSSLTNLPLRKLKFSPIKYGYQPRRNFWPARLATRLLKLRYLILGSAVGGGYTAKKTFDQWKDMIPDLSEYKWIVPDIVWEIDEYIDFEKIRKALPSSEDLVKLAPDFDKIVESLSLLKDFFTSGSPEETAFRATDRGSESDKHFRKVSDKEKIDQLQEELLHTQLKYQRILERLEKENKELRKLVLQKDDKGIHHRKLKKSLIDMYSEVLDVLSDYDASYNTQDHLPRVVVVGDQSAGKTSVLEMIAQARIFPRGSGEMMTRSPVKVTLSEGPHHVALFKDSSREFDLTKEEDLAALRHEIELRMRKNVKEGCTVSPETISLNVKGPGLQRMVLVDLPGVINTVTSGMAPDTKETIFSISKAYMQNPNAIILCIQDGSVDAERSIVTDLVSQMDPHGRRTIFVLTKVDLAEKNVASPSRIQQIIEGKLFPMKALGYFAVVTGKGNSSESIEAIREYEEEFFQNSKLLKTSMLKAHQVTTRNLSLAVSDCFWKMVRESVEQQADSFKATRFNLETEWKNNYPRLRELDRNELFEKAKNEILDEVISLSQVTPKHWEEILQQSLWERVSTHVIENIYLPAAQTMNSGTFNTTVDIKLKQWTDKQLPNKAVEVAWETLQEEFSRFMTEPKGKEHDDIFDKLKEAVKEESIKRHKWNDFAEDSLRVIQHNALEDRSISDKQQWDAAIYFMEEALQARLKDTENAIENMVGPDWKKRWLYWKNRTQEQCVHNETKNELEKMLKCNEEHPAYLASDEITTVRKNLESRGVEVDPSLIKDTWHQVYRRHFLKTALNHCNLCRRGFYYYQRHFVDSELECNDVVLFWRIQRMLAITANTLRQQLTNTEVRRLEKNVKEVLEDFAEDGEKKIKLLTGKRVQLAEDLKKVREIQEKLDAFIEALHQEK
UniProt Q92621: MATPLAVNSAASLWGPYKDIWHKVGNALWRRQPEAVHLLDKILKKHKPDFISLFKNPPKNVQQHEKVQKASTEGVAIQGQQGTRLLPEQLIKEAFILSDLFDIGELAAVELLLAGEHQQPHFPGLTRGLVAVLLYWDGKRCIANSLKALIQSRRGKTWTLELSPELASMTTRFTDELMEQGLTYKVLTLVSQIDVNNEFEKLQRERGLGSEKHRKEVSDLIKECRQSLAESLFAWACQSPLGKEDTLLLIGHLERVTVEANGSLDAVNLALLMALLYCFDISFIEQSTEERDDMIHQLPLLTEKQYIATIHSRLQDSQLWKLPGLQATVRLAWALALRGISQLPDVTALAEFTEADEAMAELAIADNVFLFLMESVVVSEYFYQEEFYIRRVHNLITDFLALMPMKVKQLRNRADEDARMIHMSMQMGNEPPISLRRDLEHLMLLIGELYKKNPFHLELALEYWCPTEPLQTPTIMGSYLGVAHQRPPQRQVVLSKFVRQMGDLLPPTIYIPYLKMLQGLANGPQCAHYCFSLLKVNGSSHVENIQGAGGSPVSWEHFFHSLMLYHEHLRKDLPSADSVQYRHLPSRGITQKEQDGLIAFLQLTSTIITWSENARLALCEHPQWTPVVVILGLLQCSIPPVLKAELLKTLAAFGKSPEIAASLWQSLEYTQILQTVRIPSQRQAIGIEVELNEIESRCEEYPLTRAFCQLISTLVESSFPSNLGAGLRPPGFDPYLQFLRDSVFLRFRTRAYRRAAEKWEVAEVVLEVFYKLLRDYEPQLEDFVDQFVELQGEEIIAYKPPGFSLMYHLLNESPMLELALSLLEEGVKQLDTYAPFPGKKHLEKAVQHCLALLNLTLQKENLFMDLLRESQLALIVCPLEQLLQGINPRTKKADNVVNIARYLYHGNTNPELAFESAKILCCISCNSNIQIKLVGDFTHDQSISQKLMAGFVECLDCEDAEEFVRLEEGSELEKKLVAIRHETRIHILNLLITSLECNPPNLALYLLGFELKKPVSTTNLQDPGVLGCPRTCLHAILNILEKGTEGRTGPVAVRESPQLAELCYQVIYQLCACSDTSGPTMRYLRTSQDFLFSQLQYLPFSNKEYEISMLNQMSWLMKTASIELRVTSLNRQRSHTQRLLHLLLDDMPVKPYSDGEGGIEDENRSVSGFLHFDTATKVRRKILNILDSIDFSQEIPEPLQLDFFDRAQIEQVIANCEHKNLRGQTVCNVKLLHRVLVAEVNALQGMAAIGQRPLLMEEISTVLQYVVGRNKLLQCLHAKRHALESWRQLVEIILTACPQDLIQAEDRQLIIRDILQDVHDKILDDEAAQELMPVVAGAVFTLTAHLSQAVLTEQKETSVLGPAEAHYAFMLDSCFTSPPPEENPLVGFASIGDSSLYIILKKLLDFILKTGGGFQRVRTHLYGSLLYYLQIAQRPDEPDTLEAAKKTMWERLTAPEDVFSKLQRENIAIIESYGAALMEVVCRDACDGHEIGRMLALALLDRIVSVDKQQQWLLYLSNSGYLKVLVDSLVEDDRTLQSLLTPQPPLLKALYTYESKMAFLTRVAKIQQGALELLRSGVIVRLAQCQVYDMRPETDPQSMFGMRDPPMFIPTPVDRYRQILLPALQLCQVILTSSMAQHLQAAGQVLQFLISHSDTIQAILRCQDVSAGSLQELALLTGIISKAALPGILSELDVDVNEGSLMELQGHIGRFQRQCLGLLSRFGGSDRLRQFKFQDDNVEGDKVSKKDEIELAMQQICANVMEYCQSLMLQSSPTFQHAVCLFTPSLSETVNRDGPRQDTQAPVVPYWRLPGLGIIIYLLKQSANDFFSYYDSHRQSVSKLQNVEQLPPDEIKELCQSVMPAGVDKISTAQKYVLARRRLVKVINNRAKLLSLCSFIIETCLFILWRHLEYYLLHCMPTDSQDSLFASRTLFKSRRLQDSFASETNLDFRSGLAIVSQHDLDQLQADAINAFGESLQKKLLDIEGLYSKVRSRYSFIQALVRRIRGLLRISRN
UniProt Q96RS6: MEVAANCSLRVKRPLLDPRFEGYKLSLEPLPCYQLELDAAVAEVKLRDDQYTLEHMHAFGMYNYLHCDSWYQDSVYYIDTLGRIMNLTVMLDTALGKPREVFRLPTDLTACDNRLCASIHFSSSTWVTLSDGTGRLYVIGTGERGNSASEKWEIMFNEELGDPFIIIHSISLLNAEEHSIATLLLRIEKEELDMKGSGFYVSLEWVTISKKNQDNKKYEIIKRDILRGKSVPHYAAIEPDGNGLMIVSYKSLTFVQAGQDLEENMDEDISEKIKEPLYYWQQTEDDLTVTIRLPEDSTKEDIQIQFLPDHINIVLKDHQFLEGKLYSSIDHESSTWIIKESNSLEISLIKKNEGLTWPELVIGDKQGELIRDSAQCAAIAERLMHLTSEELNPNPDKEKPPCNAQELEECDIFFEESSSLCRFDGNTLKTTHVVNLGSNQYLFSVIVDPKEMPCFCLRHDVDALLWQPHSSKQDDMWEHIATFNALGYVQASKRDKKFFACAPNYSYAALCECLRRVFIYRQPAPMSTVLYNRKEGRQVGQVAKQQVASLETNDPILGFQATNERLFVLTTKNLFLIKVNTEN

The other results are listed elsewhere or left out.

Compound in this assay: Cc1cc(ccc1-c1ccccc1)C(=O)N1CCCN(CC1)C(=O)CCl [compound 10]
In words: probe-labelled cysteine peptide fold change vs DMSO (competition) (log2 fold change); higher = less target engagement (more negative = stronger competition). As to conditions: THP-1, incubation time: 4 h.
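Also: competitive profiling in live THP-1 cells: cysteine peptides tagged with an iodoacetamide desthiobiotin (IA-DTB) probe, intensity after compound treatment relative to DMSO-treated cells.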

In the case of “NUP160_Q12769_1131_QGNCYLAALNCLR (UniProt Q12769)”, the “probe-labelled cysteine peptide fold change” value reads like this: (10 µM) 0.11; (50 µM) -0.0856.

With “NUMB_P49757_160_LSHAVGCAFAACLER (UniProt P49757)”, the “probe-labelled cysteine peptide fold change” value runs as follows: (10 µM) -0.25; (50 µM) -0.0513.

With “NUP210_Q8TEM1_605_LPPGSEHCSGIR (UniProt Q8TEM1)”, the “probe-labelled cysteine peptide fold change” value by setting is: (10 µM) 0.0329; (50 µM) 0.166.

Take “NUP160_Q12769_1042_QLVVVLCER (UniProt Q12769)”: the “probe-labelled cysteine peptide fold change” value runs as follows: (10 µM) 0.247; (50 µM) 0.194.

Take “OGT_O15294_323_LCPTHADSLNNLANIK (UniProt O15294)”: the “probe-labelled cysteine peptide fold change” value by setting is: (10 µM) 0.106; (50 µM) 0.0207.

In the case of “OGDH_Q02218_956_YPNAELAWCQEEHK (UniProt Q02218)”, the “probe-labelled cysteine peptide fold change” value (10 µM) is -0.131 and the “probe-labelled cysteine peptide fold change” value (50 µM) is -0.149.

For the target “NUP155_O75694_548+551_LHQEDQACATCLILACSTAACDR (UniProt O75694)”, the “probe-labelled cysteine peptide fold change” value was 0.123 (10 µM) and -0.0807 (50 µM).

On to “NUP210_Q8TEM1_1592_GECTPTQR (UniProt Q8TEM1)”, for which the “probe-labelled cysteine peptide fold change” value by setting is: (10 µM) -0.0111; (50 µM) 0.251.

“OAS1_P00973_331_QLAQEAEAWLNYPCFK (UniProt P00973)”: the “probe-labelled cysteine peptide fold change” value is, setting by setting: (10 µM) -0.132; (50 µM) -0.0175.

“NUMA1_Q14980_65_LDFVCSFLQK (UniProt Q14980)”: the “probe-labelled cysteine peptide fold change” value by setting is: (10 µM) 0.00767; (50 µM) 0.238.

Consider “NUP153_P49790_731_FKPVIGTWDCDTCLVQNKPEAIK (UniProt P49790)”, for which the “probe-labelled cysteine peptide fold change” value is, setting by setting: (10 µM) 0.119; (50 µM) -0.0571.

With “NUP160_Q12769_1309_VQNNLYHHCVINK (UniProt Q12769)”, the “probe-labelled cysteine peptide fold change” value was -0.0693 (10 µM) and 0.339 (50 µM).

As for “NUP160_Q12769_480_ALQIFCR (UniProt Q12769)”, the “probe-labelled cysteine peptide fold change” value (10 µM) turned out to be 0.0415 and the “probe-labelled cysteine peptide fold change” value (50 µM) was -0.0431.

In the case of “NUP155_O75694_373_LYFSTCPFR (UniProt O75694)”, the “probe-labelled cysteine peptide fold change” value is, setting by setting: (10 µM) 0.0117; (50 µM) 0.486.

With “OGFR_Q9NZT2_87_DCNGDTPNLSFYR (UniProt Q9NZT2)”, the “probe-labelled cysteine peptide fold change” value (10 µM) was -0.203 and the “probe-labelled cysteine peptide fold change” value (50 µM) came to 0.0552.

“OPA1_O60313_786_TQEQCVHNETK (UniProt O60313)”: the “probe-labelled cysteine peptide fold change” value runs as follows: (10 µM) -0.138; (50 µM) -0.322.

On to “NUP160_Q12769_292+303_GDQSPSDRPLSLAVHCVEHDAFIFALCQDHK (UniProt Q12769)”, for which the “probe-labelled cysteine peptide fold change” value came out at 0.075 (10 µM) and 0.189 (50 µM).

With “NUP205_Q92621_1662_CQDVSAGSLQELALLTGIISK (UniProt Q92621)”, the “probe-labelled cysteine peptide fold change” value by setting is: (10 µM) 0.0612; (50 µM) 0.271.

Regarding “OAS3_Q9Y6K5_73_GGCDSELVIFLDCFK (UniProt Q9Y6K5)”, the “probe-labelled cysteine peptide fold change” value is -0.116 (10 µM) and 0.158 (50 µM).

For “NUDCD1_Q96RS6_402+410+421_EKPPCNAQELEECDIFFEESSSLCR (UniProt Q96RS6)”, the “probe-labelled cysteine peptide fold change” value is, setting by setting: (10 µM) -0.098; (50 µM) -0.407.

In the case of “OGDH_Q02218_331_ELEQIFCQFDSK (UniProt Q02218)”, the “probe-labelled cysteine peptide fold change” value (10 µM) worked out at 0.0516 and the “probe-labelled cysteine peptide fold change” value (50 µM) stood at 0.333.

For the target OGT_O15294_44_HCMQLWR (UniProt O15294), the “probe-labelled cysteine peptide fold change” value runs as follows: (10 µM) 0.214; (50 µM) 0.192.

“OGDH_Q02218_604_SMSCPSTGLTEDILTHIGNVASSVPVENFTIHGGLSR (UniProt Q02218)”: the “probe-labelled cysteine peptide fold change” value is, setting by setting: (10 µM) 0.109; (50 µM) 0.174.

Turning to “OAS2_P29728_210_HWHQQCQK (UniProt P29728)”, the “probe-labelled cysteine peptide fold change” value was -0.708 (10 µM) and 0.204 (50 µM).

For the target “NUMA1_Q14980_1673_EAEQTCR (UniProt Q14980)”, the “probe-labelled cysteine peptide fold change” value (10 µM) came to 0.0546 and the “probe-labelled cysteine peptide fold change” value (50 µM) turned out to be 0.0417.

Turning to “NUDCD1_Q96RS6_111_LPTDLTACDNR (UniProt Q96RS6)”, the “probe-labelled cysteine peptide fold change” value by setting is: (10 µM) 0.129; (50 µM) 0.0177.

Turning to “ODR4_Q5SWX8_77_AKLDNLDEEWATEHACQVSR (UniProt Q5SWX8)”, the “probe-labelled cysteine peptide fold change” value reads like this: (10 µM) -0.158; (50 µM) -0.0362.

For “NUDT2_P50583_123_WLGLEEACQLAQFK (UniProt P50583)”, the “probe-labelled cysteine peptide fold change” value is, setting by setting: (10 µM) -0.122; (50 µM) 0.0127.

As for “NUP160_Q12769_1166_RNHDGECTAAPTNR (UniProt Q12769)”, the “probe-labelled cysteine peptide fold change” value was -0.145 (10 µM) and -0.199 (50 µM).

Take “NUP205_Q92621_1486_DACDGHEIGR (UniProt Q92621)”: the “probe-labelled cysteine peptide fold change” value was 0.0414 (10 µM) and 0.227 (50 µM).

Regarding “NUP160_Q12769_1166_NHDGECTAAPTNR (UniProt Q12769)”, the “probe-labelled cysteine peptide fold change” value is -0.241 (10 µM) and -0.27 (50 µM).

As to “OPA1_O60313_551_NLSLAVSDCFWK (UniProt O60313)”, the “probe-labelled cysteine peptide fold change” value stood at 0.215 (10 µM) and 0.135 (50 µM).

Regarding “NUP98_P52948_760_GECIVSDFTIGRK (UniProt P52948)”, the “probe-labelled cysteine peptide fold change” value is, setting by setting: (10 µM) 0.0932; (50 µM) -0.0434.

Regarding “NUP155_O75694_356_SVFKPIVQIAVIENSESLDCQLLAVTHAGVR (UniProt O75694)”, the “probe-labelled cysteine peptide fold change” value is, setting by setting: (10 µM) 0.0396; (50 µM) 0.0661.

Consider “NUP205_Q92621_141_CIANSLK (UniProt Q92621)”, for which the “probe-labelled cysteine peptide fold change” value is, setting by setting: (10 µM) -0.163; (50 µM) 0.179.

With “OCIAD2_Q56VL3_46_ECQEESFWK (UniProt Q56VL3)”, the “probe-labelled cysteine peptide fold change” value (10 µM) is -0.0156 and the “probe-labelled cysteine peptide fold change” value (50 µM) worked out at 0.137.
